Laboratory results published in PubChem BioAssay AID2685 (National Center for Advancing Translational Sciences (NCATS), 2010).
The other results are listed elsewhere or left out. The main result of the screen is listed elsewhere. These columns were measured beside it and carry no call. The list favours compounds with an active or inconclusive main result. Potencies come from curve fits of mixed quality, noted in brackets.

Experiment: qHTS Assay for Lipid Storage Modulators in Drosophila S3 Cells;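 as to cell number change: cells counted by Cell Tracker Red CMTPX staining in the red channel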
Settings: BODIPY lipid droplet fluorescence, 18-24 h; for cell number change: measured here: cell count max response, cells fed with added oleic acid
Outline: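 Laser-scanning cytometry quantifies lipid droplet accumulation (500–530 nm total intensity; droplet/cell object ratio) in oleic acid-fed (400 uM added) Drosophila S3 cells treated with a concentration series. 20 uM Triacsin C defined 100% inhibition.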

[1] = measured here: lipid fluorescence (Fed channel) AC50, cells fed with added oleic acid
[2] = measured here: cell number channel AC50, cells fed with added oleic acid

SMILES | cell number change [%] | AC50 [1] | AC50 [2]
Cn1cccc1CC(=O)NNC(=O)Nc1ccccc1F | -8.9 | 0.00461 µM [falling, full curve, poor fit] | –
Cc1cc(C)cc(OCC(=O)OCC(=O)NC2CCCC2)c1 | 21.6 | 0.92 µM [rising, full curve, poor fit] | –
CC(C)C(NC(=O)c1cccs1)c1nnc(SCC(=O)Nc2nccs2)n1C (stereo not drawn) | – | 0.651 µM [falling, full curve] | 0.092 µM [falling, full curve]
C/C(=N\NS(=O)(=O)c1ccc(C)cc1)c1ccc(C)s1 | -28.5 | 16.4 µM [falling, partial curve, poor fit] | –
Cc1[nH][nH]c(=O)c1C(c1ccc(Cl)cc1)c1c(C)[nH][nH]c1=O | -2.36 | 23.1 µM [rising, single point] | –
COc1ccc(NC(=S)N2CCN(c3ccccc3)CC2)c(OC)c1 | 3.72 | – | –
Cc1ccc(NC(=O)C2CC(=O)N(c3ccc4c(c3)OCCO4)C2)nc1 (stereo not drawn) | 19.5 | 0.092 µM [rising, full curve, poor fit] | –
CC1CCCCC1NC(=O)CN1C(=O)c2cccc(N)c2C1=O (stereo not drawn) | – | – | 0.82 µM [rising, single point]
CCc1ccc(C(O)(CNCc2ccccc2)c2ccccc2)cc1 (stereo not drawn) | -49.6 | 1.84 µM [falling, partial curve] | 29.1 µM [falling, single point]
COc1ccc(Cl)cc1NC(=O)CN(C)CC(=O)Nc1ccccc1N1CCOCC1 | 12.2 | 0.0517 µM [rising, full curve, poor fit] | –
O=C(COC(=O)c1ccc(F)cc1F)Nc1cccc(S(=O)(=O)N2CCOCC2)c1 | 2.5 | – | –
CCCC(CCC)C(=O)NNc1cc(=O)c2c(=O)n(C)c(=O)n(C)c2[nH]1 | – | 32.6 µM [falling, single point] | –
CC1CCc2[nH]c3ccc(C(=O)N(C)CC(=O)Nc4ccccc4C(F)(F)F)cc3c2C1 (stereo not drawn) | 41.7 | 0.366 µM [rising, full curve, poor fit] | 0.082 µM [rising, full curve, poor fit]
Cc1nccn1CCCNC(=O)CC1C(=O)NCCN1Cc1ccccc1C(F)(F)F (stereo not drawn) | -9.15 | 0.00517 µM [falling, full curve, poor fit] | –
Cc1ccc(/C=[N+](/C)[O-])cc1 | -21 | 6.51 µM [falling, partial curve] | 6.51 µM [falling, single point]
CCOC(Cn1c(-c2ccc(OC)cc2)nc2ccccc21)OCC | 98 | 14.6 µM [rising, partial curve] | 18.4 µM [rising, single point]
O=C(Nc1cccc(OC(F)(F)F)c1)c1ccc(Br)o1 | -44.8 | 20.6 µM [falling, partial curve] | 14.6 µM [falling, partial curve]
COC(=O)CNC(c1ccccc1)c1cc(Cl)ccc1NC(=O)c1cccc(Cl)c1 (stereo not drawn) | 37.8 | – | 16.4 µM [rising, single point]

SMILES | cell number change [%] | AC50 [1] | AC50 [2]
CCOC(=O)C1CCN(C(=O)CSc2nc(N)cc(=O)[nH]2)CC1 | 38.2 | – | 13 µM [rising, partial curve, poor fit]
Cc1ccc(-c2nnc3n2CCCCC3)cc1 | 0.191 | 0.164 µM [rising, full curve, poor fit] | –
CCOC(=O)c1sc(C)nc1C1CCN(C(=O)OCC)CC1 | 88.8 | 1.64 µM [rising, partial curve] | 5.8 µM [rising, partial curve]
CCC(C)C(NC(N)=O)C(=O)Nc1ccc(C)c(Cl)c1 (stereo not drawn) | 0.157 | 32.6 µM [falling, single point] | –
Cc1cc(C)c(S(=O)(=O)/N=C2/C=C(Sc3ncn[nH]3)C(=O)c3ccccc32)cc1C | -65.8 | 20.6 µM [falling, partial curve] | 25.9 µM [falling, single point]
CC1=CC(C)(C)Nc2ccc(OC(=O)c3ccco3)cc21 | -99.2 | 29.1 µM [falling, single point] | 20.6 µM [falling, single point]
CCc1nnc(NC(=O)c2cc(C)nc3ccccc23)s1 | 23.7 | 29.1 µM [rising, single point] | –
CCOc1ccc(/C=N/NC(=O)c2ccccc2O)cc1CN1CC2CC(C1)c1cccc(=O)n1C2 (stereo not drawn) | -27.8 | 29.1 µM [falling, single point] | –
Cc1ccc(N(CC(=O)NCC2CCCO2)C(=O)CCC(=O)Nc2cc(C)on2)cc1 (stereo not drawn) | 21.7 | 0.00461 µM [rising, full curve, poor fit] | –
Cc1cccc(-c2nnnn2-c2cccc(C)c2)c1 | 52.4 | – | 14.6 µM [rising, partial curve, poor fit]
COC(=O)C1C2C=CC3(CN(CC4CCCO4)C(=O)C13)O2 (stereo not drawn) | -123 | – | 29.1 µM [falling, single point]
Oc1ccc(Br)cc1-c1n[nH]c(=S)n1Cc1ccccc1 | -36 | – | 14.6 µM [falling, single point]
CN1C(=O)C(C)(C)c2cc(S(=O)(=O)N3CCCC(C(=O)Nc4ccc(Cl)cc4)C3)ccc21 (stereo not drawn) | 7.78 | 29.1 µM [falling, single point] | –
Cc1ccc(NC(=O)CN(C)C(=O)CSc2nc3ccccc3c(=O)n2CCO)cc1 | – | – | 2.59 µM [rising, single point]
COc1ccccc1C(=O)NCCC(=O)Nc1ccc(OC(F)(F)F)cc1 | -4.76 | 6.51 µM [falling, single point] | –
CCOc1cc(/C=N/NC(=O)c2ccc(O)cc2)ccc1Oc1nc(Cl)ncc1F | 2.38 | 6.51 µM [falling, single point] | –
CC(=O)Nc1ccc(S(=O)(=O)N2CC3(C)CC2CC(C)(C)C3)cc1 (stereo not drawn) | – | 0.58 µM [falling, single point] | 6.51 µM [falling, single point]

10 consecutive compounds out of the list so far, for reference:
SMILES | cell number change [%] | AC50 [1] | AC50 [2]
CCOC(=O)c1sc(C)nc1C1CCN(C(=O)OCC)CC1 | 88.8 | 1.64 µM [rising, partial curve] | 5.8 µM [rising, partial curve]
CCC(C)C(NC(N)=O)C(=O)Nc1ccc(C)c(Cl)c1 (stereo not drawn) | 0.157 | 32.6 µM [falling, single point] | –
Cc1cc(C)c(S(=O)(=O)/N=C2/C=C(Sc3ncn[nH]3)C(=O)c3ccccc32)cc1C | -65.8 | 20.6 µM [falling, partial curve] | 25.9 µM [falling, single point]
CC1=CC(C)(C)Nc2ccc(OC(=O)c3ccco3)cc21 | -99.2 | 29.1 µM [falling, single point] | 20.6 µM [falling, single point]
CCc1nnc(NC(=O)c2cc(C)nc3ccccc23)s1 | 23.7 | 29.1 µM [rising, single point] | –
CCOc1ccc(/C=N/NC(=O)c2ccccc2O)cc1CN1CC2CC(C1)c1cccc(=O)n1C2 (stereo not drawn) | -27.8 | 29.1 µM [falling, single point] | –
Cc1ccc(N(CC(=O)NCC2CCCO2)C(=O)CCC(=O)Nc2cc(C)on2)cc1 (stereo not drawn) | 21.7 | 0.00461 µM [rising, full curve, poor fit] | –
Cc1cccc(-c2nnnn2-c2cccc(C)c2)c1 | 52.4 | – | 14.6 µM [rising, partial curve, poor fit]
COC(=O)C1C2C=CC3(CN(CC4CCCO4)C(=O)C13)O2 (stereo not drawn) | -123 | – | 29.1 µM [falling, single point]
Oc1ccc(Br)cc1-c1n[nH]c(=S)n1Cc1ccccc1 | -36 | – | 14.6 µM [falling, single point]
